From doi:10.1101/2022.10.09.511391 come the findings set out here.

In the experiment the target is T1, Flag-TRB3 (UniProt Q8K4K2).
T1 sequence: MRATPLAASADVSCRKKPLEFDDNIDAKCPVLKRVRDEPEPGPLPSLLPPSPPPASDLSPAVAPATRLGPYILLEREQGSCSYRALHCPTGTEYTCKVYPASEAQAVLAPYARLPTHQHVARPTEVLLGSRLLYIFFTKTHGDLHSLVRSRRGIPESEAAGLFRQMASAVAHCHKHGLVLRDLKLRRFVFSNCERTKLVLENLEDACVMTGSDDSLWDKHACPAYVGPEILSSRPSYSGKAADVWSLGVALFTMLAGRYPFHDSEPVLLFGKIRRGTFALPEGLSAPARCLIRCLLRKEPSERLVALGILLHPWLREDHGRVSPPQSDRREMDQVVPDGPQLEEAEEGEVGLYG
Briefly: affinity purification with mass spectrometry.

No constants are given. Whether binding was seen depends on the method and setting. Binding seen in cells or lysates may run through a third protein. These calls come from enrichment with a bait or labelling near it, and not all partners need be listed. Where a sequence is shown, tags or fusion partners need not be part of it.

B1: Flightless-homolog 1 (Fli1), endogenous in Min6 cells (protein, UniProt Q9JJ28 1-1271)
chain: MEATGVLPFVRGVDLSGNDFKGGYFPENVKAMTSLRWLKLNRTGLCYLPEELAALQKLEHLSVSHNHLTTLHGELSSLPSLRAIVARANSLKNSGVPDDIFKLDDLSVLDLSHNQLTECPRELENAKNMLVLNLSHNGIDSIPNQLFINLTDLLYLDLSENRLESLPPQMRRLVHLQTLVLNGNPLLHAQLRQLPAMMALQTLHLRNTQRTQSNLPTSLEGLSNLSDVDLSCNDLTRVPECLYTLPSLRRLNLSSNQIAELSLCIDQWVHLETLNLSRNQLTSLPSAICKLTKLKKLYLNSNKLDFDGLPSGIGKLTSLEEFMAANNNLELIPESLCRCPKLKKLVLNKNRLVTLPEAIHFLTEIQVLDVRENPSLVMPPKPADRTAEWYNIDFSLQNQLRLAGASPATVAAAAAVGSGSKDPLARKMRLRRRKDSAQDVQAKQVLKGMSDVAQEKNKNQEESIDARAPGGKVRRWDQGLEKPRLDYSEFFTEDVGQLPGLTIWQIENFVPVLVEEAFHGKFYEADCYIVLKTFLDDSGSLNWEIYYWIGGEATLDKKACSAIHAVNLRNYLGAECRTVREEMGDESEEFLQVFDNDISYIEGGTASGFYTVEDTHYVTRMYRVYGKKNIKLEPVPLKGSSLDPRFVFLLDQGLDIYVWRGAQATLSNTTKARLFAEKINKNERKGKAEITLLVQGQEPPGFWDVLGGEPSEIKNHVPDDFWPPQPKLYKVGLGLGYLELPQINYKLSVEHKKRPKVELMPGMRLLQSLLDTRCVYILDCWSDVFIWLGRKSPRLVRAAALKLGQELCGMLHRPRHTVVSRSLEGTEAQVFKAKFKNWDDVLTVDYTRNAEAVLQGQGLSGKVKRDTEKTDQMKADLTALFLPRQPPMPLAEAEQLMEEWNEDLDGMEGFVLEGRKFTRLPEEEFGHFYTQDCYVFLCRYWVPVEYEEEEKTEDKEGKASAEAREGEEAAAEAEEKQPEEDFQCIVYFWQGREASNMGWLTFTFSLQKKFESLFPGKLEVVRMTQQQENPKFLSHFKRKFIIHRGKRKVTQGTLQPTLYQIRTNGSALCTRCIQINTDSSLLNSEFCFILKVPFESEDNQGIVYAWVGRASDPDEAKLAEDILNTMFDASYSKQVINEGEEPENFFWVGIGAQKPYDDDAEYMKHTRLFRCSNEKGYFAVTEKCSDFCQDDLADDDIMLLDNGQEVYMWVGTQTSQVEIKLSLKACQVYIQHTRSKEHERPRRLRLVRKGNEQRAFTRCFHAWSTFRQAPA
As to B1, the binding result is “binds”.
